Results are given in words; binding and its absence hold for the method and conditions named. Some entries that bind do so weakly or less than the wild type. Sequences can lack the tags named with a protein.
Target: SCFPC-PsbO1 (C-terminus fragment of super cyan fluorescent protein fused to the N-terminus of PsbO1) (Arabidopsis thaliana) (UniProt P23321)
Test: BiFC, transient expression in cotyledons

The chains behind the UniProt entries cited, without tags or fusion partners.
UniProt P23321: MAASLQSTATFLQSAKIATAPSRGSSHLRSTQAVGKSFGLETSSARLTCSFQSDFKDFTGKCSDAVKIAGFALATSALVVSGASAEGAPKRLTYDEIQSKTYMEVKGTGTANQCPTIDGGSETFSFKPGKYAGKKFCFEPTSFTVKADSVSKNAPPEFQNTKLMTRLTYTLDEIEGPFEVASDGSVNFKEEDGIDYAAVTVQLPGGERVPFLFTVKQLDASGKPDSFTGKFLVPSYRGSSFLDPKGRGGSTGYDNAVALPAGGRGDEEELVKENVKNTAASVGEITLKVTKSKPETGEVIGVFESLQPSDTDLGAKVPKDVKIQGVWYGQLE

B1: VenusN-AtCV (N-terminus fragment of yellow fluorescent protein Venus fused to the N-terminus of AtCV) (protein, not shown: small tags and cut ends)
chain: MAGRISCCLNLPPLDSNSAQSLASLLKTTSKISCRRTENETEPRKNKCSFVLGVAATVVIGGIQINDVASVEAAVVKSPVEEMAAGVVPPRRWSDKRTCPPWLENSLETIVPENLPRPSAHRRLELAGLAKGDAPPVGVVMTRVNRGGCFSV
- binding: binds

Source: patent publication US20160298128A1
